# From PubChem BioAssay (NCATS)
# The shares of active, inactive and inconclusive entries below differ from those in the screen. Potencies of inconclusive entries are doubtful fits and often do not repeat. Active and inactive are the calls of the source. Calls follow the shape of the dose curve; as a rule, active = well fitted cell-killing curve with a large enough effect; inconclusive = small, poorly fitted or top-dose-only effect, or effect the other way; inactive = no such curve, though single readings can be large or run the other way.
# Assay: Quantitative High-Throughput drug screen in 47 multiple myeloma cell lines against the NCATS MIPE library collection: OCIMY7_PLB cell viability assay (AID 1918987); also: nearly all actives have a fitted effect of over 65% in size
# Conditions: OCI-MY7 myeloma viability, CellTiter-Glo ATP, 48 h; viability (% of DMSO): at 45.8 µM (top of the series)
# From the text: PI: Beverly A. Mock Ph.D.
# Laboratory of Cancer Biology and Genetics,
# Center for Cancer Research, National Cancer Institute,
# National Institute of Health, Bethesda, Maryland
# Drug resistance and disease progression are common in multiple myeloma (MM) patients, underscoring the need for new therapeutic combinations. […] We hypothesized that effective combinations would reduce MYC expression and enhance p16 activity. […] These preclinical data identify potentially useful drug combinations for evaluation in drug-resistant MM and reveal potential mechanisms of combined drug sensitivity.
# Described herein is the primary MIPE qHTS used to cherrypick compounds. Validated compounds were then further tested for potential synergistic activiy.
# [1] Peat TJ, Gaikwad SM, Dubois W, Gyabaah-Kessie N, Zhang S, Gorjifard S, Phyo Z, Andres M, Hughitt VK, Simpson RM, Miller MA, Girvin AT, Taylor A, Williams D, D'Antonio N, Zhang Y, Rajagopalan A, Flietner E, Wilson K, Zhang X, Shinn P, Klumpp-Thomas C, McKnight C, Itkin Z, Chen L, Kazandijian D, Zhang J, Michalowski AM, Simmons JK, Keats J, Thomas CJ, Mock BA. Drug combinations identified by high-throughput screening promote cell cycle transition and upregulate Smad pathways in myeloma. Cancer Lett. 2023 Aug 1;568:216284. doi: 10.1016/j.canlet.2023.216284. Epub 2023 Jun 24. PMID: 37356470; PMCID: PMC10408729.
# SEQUENCE No. (e.g., 1, 2, 3, etc.); […] (e.g., Cells, Incubation, Reagent, etc.); VALUE and DESCRIPTION.
# 1; Cells; 5 uL; white, solid bottom 1536-well Greiner assay plate.
# 2; Compounds; 23 nL; Kalypsis pin tool (Wako USA) equipped with a 1536-well pin head to transfer to the assay plates.
# 3; Incubation; 48 hours; 37C incubation.
# 4; Reagent;5uL; CellTiter Glo (Promega).
# 5; Detector; 425V; Luminescence; Viewlux PerkinElmer.
# NOTES (numbers refer to Sequence numbers above)
# 1. The cell-based screening methods employed in this study were like those previously published. Briefly, the corresponding myeloma cell lines were screened in 1,536-well plates with 500 cells, 5-uL per well for inhibition of cell viability (assessed by measuring ATP levels with CellTiterGlo).
# 2. NCATS MIPE 4.0 library of approved and investigational drugs were added using the Kalypsis pin tool. Wells treated with DMSO only for 100% viability and media only for 0% viability were used as controls.
# 3. The assay plates were covered and incubated for 48 hours in a 37C, 5% CO2 incubator with controlled humidity.
# 4. After 48 hours, CellTilter-GloTM luminescent substrate mix (Promega) reagent was added to the assay plate and plates we incubated for 5 min at room temperature.
# 5. Signal was measured as median relative luminescence units on a ViewLux (PerkinElmer) multiplate reader.
# [1] Heske CM, Davis MI, Baumgart JT, Wilson K, Gormally MV, Chen L, Zhang X, Ceribelli M, Duveau DY, Guha R, Ferrer M, Arnaldez FI, Ji J, Tran HL, Zhang Y, Mendoza A, Helman LJ, Thomas CJ. Matrix Screen Identifies Synergistic Combination of PARP Inhibitors and Nicotinamide Phosphoribosyltransferase (NAMPT) Inhibitors in Ewing Sarcoma. Clin Cancer Res. 2017 Dec 1;23(23):7301-7311. doi: 10.1158/1078-0432.CCR-17-1121. Epub 2017 Sep 12. PMID: 28899971; PMCID: PMC6636827.
# Potency is read from the fitted curve at half-maximal effect.
Compound,viability (% of DMSO),Potency
CC(C)OC(=O)C(C)(C)Oc1ccc(C(=O)c2ccc(Cl)cc2)cc1,inactive: 269%,–
CC(=O)N[C@H]1[C@@H]([C@H](O)[C@H](O)CO)OC(C(=O)O)=C[C@@H]1N=C(N)N,–,"inconclusive: 20900 nM [cytotoxic, partial curve, poor fit]"
COc1cc(NS(=O)(=O)c2ccc(N)cc2)nc(OC)n1,inactive: 174%,–
C=C(C)[C@@H]1CC[C@]2(C(=O)O)CC[C@]3(C)[C@H](CC[C@@H]4[C@@]5(C)CC[C@H](O)C(C)(C)[C@@H]5CC[C@]43C)[C@@H]12,–,"inconclusive: 6.6 nM [cytotoxic, full curve, poor fit]"
N[C@@H]1CONC1=O,–,inconclusive: 1 nM
COc1cc([C@@H]2c3cc4c(cc3[C@@H](O[C@@H]3O[C@@H]5CO[C@@H](C)O[C@@H]5[C@H](O)[C@@H]3O)[C@H]3COC(=O)[C@H]23)OCO4)cc(OC)c1O,–,"inconclusive: 526 nM [cytotoxic, full curve, poor fit]"
O=C(O)CCCCC(CCSCc1ccccc1)SCc1ccccc1 (stereo not given),–,"inconclusive: 16600 nM [cytotoxic, partial curve, poor fit]"
CNC(=O)CN1CCC(Oc2cc3c(Nc4cccc(Cl)c4F)ncnc3cc2OC)CC1,–,active: 83.3 nM
Cc1cn2cc(C(=O)N(C)CCO)cc(N[C@@H]3CCOc4cccc(C)c43)c2n1,–,"inconclusive: 93.5 nM [rising, full curve, poor fit]"
C[C@@H]1CC[C@@]2(OC1)OC1CC3C4CC=C5CC(O)CCC5(C)C4CCC3(C)C1[C@@H]2C (stereo not given in full),inactive: 159%,–
COc1cc([C@@H]2c3cc4c(cc3[C@@H](O[C@@H]3O[C@@H]5CO[C@@H](c6cccs6)O[C@@H]5[C@H](O)[C@@H]3O)[C@H]3COC(=O)[C@H]23)OCO4)cc(OC)c1O,–,"inconclusive: 296 nM [cytotoxic, full curve, poor fit]"
CCCCCCCCCCCCc1ccc(S(=O)(=O)Nc2nncs2)cc1,–,"inconclusive: 332 nM [cytotoxic, full curve, poor fit]"
O=C(O)CO.[NH2-].[NH2-].[Pt+2],–,"inconclusive: 1.2 nM [cytotoxic, full curve, poor fit]"
CCN1CCN(C(=O)N[C@H](C(=O)N[C@@H]2C(=O)N3C(C(=O)O)=C(CSc4nnnn4C)CS[C@@H]23)c2ccc(O)cc2)C(=O)C1=O,inactive: 190% [at 15.3 µM],–
CC(C)(C)C(=O)OCOP(=O)(COCCn1cnc2c(N)ncnc21)OCOC(=O)C(C)(C)C,–,"inconclusive: 235 nM [cytotoxic, full curve]"
CN1c2cc(O)c(N=NC(N)=O)cc2CC1S(=O)(=O)O (stereo not given),–,"inconclusive: 296 nM [cytotoxic, full curve, poor fit]"
CCCCNc1cc(C(=O)O)cc(S(N)(=O)=O)c1Oc1ccccc1,–,"inconclusive: 1050 nM [rising, full curve, poor fit]"
COc1c(N2C[C@@H]3CCCN[C@H]3C2)c(F)cc2c(=O)c(C(=O)O)cn(C3CC3)c12,–,"inconclusive: 1050 nM [rising, full curve, poor fit]"
CO[C@@H]1[C@H](N(C)C(=O)c2ccccc2)C[C@H]2O[C@]1(C)n1c3ccccc3c3c4c(c5c6ccccc6n2c5c31)C(=O)NC4,–,active: 235 nM
Cc1onc(-c2ccccc2Cl)c1C(=O)N[C@@H]1C(=O)N2[C@@H]1SC(C)(C)[C@@H]2C(=O)O,–,"inconclusive: 4.2 nM [rising, full curve, poor fit]"
C[C@H]1C[C@H]2[C@@H]3CCC4=CC(=O)C=C[C@]4(C)[C@@H]3C(=O)C[C@]2(C)[C@@]1(O)C(=O)CO,–,"inconclusive: 16600 nM [cytotoxic, partial curve, poor fit]"
O=C(O)C1CCCN(CCC=C(c2ccccc2)c2ccccc2)C1 (stereo not given),inactive: 187%,–
CCn1cc(C(=O)O)c(=O)c2cc(F)c(N3CCNCC3)cc21,inconclusive: 241%,–
Nc1[nH]c(=O)ncc1F,inactive: 228%,–
COc1ccc([C@@H]2CNC(=O)C2)cc1OC1CCCC1,–,"inconclusive: 2090 nM [cytotoxic, full curve, poor fit]"
CN1[C@@H]2CCC[C@@H]1CC(NC(=O)c1nn(C)c3ccccc13)C2 (stereo not given in full),–,"inconclusive: 11.8 nM [cytotoxic, full curve, poor fit]"
OC(CCN1CCCCC1)(c1ccccc1)C1CC2C=CC1C2 (stereo not given),–,"inconclusive: 5260 nM [rising, partial curve, poor fit]"
Nc1ccc(S(=O)(=O)Nc2ccnn2-c2ccccc2)cc1,–,"inconclusive: 9350 nM [cytotoxic, full curve, poor fit]"
CCC(C)(Oc1ccc(C2(c3ccc(OC(C)(CC)C(=O)O)cc3)CCCCC2)cc1)C(=O)O (stereo not given),–,"inconclusive: 4180 nM [cytotoxic, partial curve, poor fit]"
Nc1ccn(C[C@@H](CO)OCP(=O)(O)O)c(=O)n1,–,"inconclusive: 7240 nM [cytotoxic, partial curve, poor fit]"

# Looked up above.
# Under Potency, `COc1ccc([C@@H]2CNC(=O)C2)cc1OC1CCCC1` is listed with inconclusive: 2090 nM [cytotoxic, full curve, poor fit]
# Under Potency, `Nc1ccc(S(=O)(=O)Nc2ccnn2-c2ccccc2)cc1` is listed with inconclusive: 9350 nM [cytotoxic, full curve, poor fit]
